# Test results reported in PubChem BioAssay AID1508600 (Functional Genomics Laboratory (NCATS/FGL), 2020).
# The campaign covered roughly 53,000 sequences. About 3,700 (7%) were called active.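 How the source made its calls: active means gene knockdowns whose robust z-score for IL-1 alpha signal is at least 2 or at most -2, so actives lie on both sides; inactive means the rest.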 Some of the results follow.
# Experiment: Components of the Cytosolic LPS Sensing Pathway: Gene Identification via Genome-wide siRNA Screen;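 further: robust z of the log signal after scaling to non-targeting control siRNA wells of the plate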
# Settings: RAW264.7 macrophages, IL-1a HTRF, actives lie on both sides, screened at 100 nM (by protocol), cells primed 5 h with Pam3CSK4 first
# Outline: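 Cells (RAW264.7, 1×10^4 per well) were transfected with siRNA at 100 nM and cultured 48h at 37 degrees C. Pam3CSK4 was added for 5 hours; LipidA transfection followed for 24 hour. IL-1a was then measured by HTRF.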
row,Sequence,z-score
1,GCUUCUGUUAUGAGGCUCATT against Hif1a,active: -2.52
2,CGAAUGAAGCUGACAUUGGTT against Ssx9,inactive: 0.0231
3,CCGCUACCAACAGAGCAAATT against Trim9,inactive: 0.636
4,GCUUGGUUGGAUCCUGAUUTT against Polr2g,inactive: -1.77
5,GGCAGAUGUAUGAAAUCUUTT against Fancc,inactive: -0.196
6,GCACAUCAACAUUGAUACUTT against Atp11c,inactive: -0.0521
7,GGUGAAACCCUGAAAGUCCTT against Tmem154,inactive: -0.169
8,UAAAAUAUGCGAGCUCGCGTT against Adam26b,inactive: 1.35
9,GAAGUGAAGAAAGUCAUCATT against Olfr1506,inactive: 0.128
10,GCAGCAACAUUCUUUGGAUTT against Adk,inactive: 0.986
11,CCGGACCUCUGCGCAAUUUTT against Npb,inactive: 0.289
12,GCCAAAUAUUAUUCCUACATT against Sec63,inactive: -0.282
13,GCUGCACUUGAAAUCCGAGTT against Atg2b,inactive: 1.49
14,GGUAGCUUAGAGGACUAACTT against Cidec,inactive: -1.78
15,GGAUCCAAGGUGAAAAUAUTT against Fam131a,active: -2.25
16,CGACUGUCGUUUGUUGAUGTT against Tktl2,inactive: -0.766
17,GCUGUAAUUCCUAAGUUAUTT against Ubxn6,inactive: 0.268
18,GGUUUCUGUUUUGUCACACTT against Slc22a13b,inactive: -0.535
19,GCUAUGUGGGUUGUGCUAUTT against Olfr1361,inactive: 0.734
20,GGGCUAUGCAGACCUGUACTT against Cyb561,active: -2.45
21,GCAUGUGCUAUAAUGAUCATT against Gm5444,inactive: 0.256
22,GGAUGAAUAUGGUGUUUCUTT against Rnf138,active: -2.23
23,CCUGGGUCAAACAAAAAAGTT against Bfar,inactive: -0.531

row,Sequence,z-score
1,GGAUUUUGUUCCUCAAGAUTT against Pip4k2a,inactive: -0.737
2,GGUUCAUAGGCAACUUUCUTT against Olfr1294,inactive: -1.94
3,UACAGGGUUAGCUCAUCACTT against Gm10439,inactive: -0.544
4,GGCGUAGUACUUCUAAUACTT against Rab12,inactive: -0.806
5,GGAAGCUUACUUUUCUCUATT against Rprd1a,inactive: 0.71
6,GGUCAUCGCUCAGUUAGAATT against Zfp879,inactive: 0.33
7,GGCAGCCUUAUCCACGUGATT against Ces2c,inactive: 0.958
8,GGAGAUACUGAGUACAUUCTT against Cd38,inactive: 0.115
9,GCCGAGUUAAGUUGACUUUTT against Ptpn12,inactive: -0.0187
10,GCUAAACCCAAAAACACAATT against Sim2,inactive: 1.04
11,CCAACCACAGGAUCAGAUGTT against Prrg4,inactive: 0.556
12,GGAAAUGUAGUGAAGGGUGTT against Ndfip2,active: 2.03
13,GCAGCAUUUAGCUAGACAGTT against Agtr1b,inactive: 0.934
14,GGACUCUUUUAUGAGUUUGTT against Lims1,inactive: 0.757
15,CCAUACAAUAAGAGUGCUATT against Clec4a4,inactive: 0.936
16,GCAUGUCGCCUUGAAAUUATT against Cpne4,inactive: 0.202
17,GGAAGACCAUGUUUUAAAATT against Tm4sf20,inactive: 0.521
18,CCCACAAAUUAAAGUCCGCTT against Cldn16,inactive: 0.926
19,GCUUUAAUGCCUAUUGCAATT against Apol7c,inactive: 0.641
20,GGAAGACUACAUAAGAGACTT against Cxcl9,inactive: 0.103
21,GGGCACUGACAAACGUAUUTT against Olfr433,inactive: -0.34
22,CCAAGACUCUUUAUUCAACTT against Rasip1,inactive: 0.774
23,GGAGUUGGUUUGUAUCAAATT against Fgf15,inactive: 0.261

row,Sequence,z-score
1,CCCAGCACUUUUUCGCUCUTT against Olfr458,inactive: 0.959
2,GGAACUCAAAGUCAAGGUUTT against Cryab,inactive: -1.28
3,CGGGUUCAACUAAAUUCAGTT against Dnajc5,inactive: 0.279
4,GCAUGCGCGCUACACUCUATT against Adamts5,inactive: -0.622
5,GGACUCCUACAUGAUUGCUTT against Slc52a2,inactive: -0.362
6,GGUCAUCAGAAGAAUCAAGTT against Arr3,active: 2.13
7,GGAGUCCUUCUUUCACUGGTT against Pepd,inactive: -0.223
8,CCUUCACAAGCAAUAAGUCTT against Acot7,inactive: -0.478
9,GCGAUCAGCAAGCUAAGCCTT against Mettl2,inactive: 0.117
10,GGAACAUAUUAUCUCGGAGTT against Cit,inactive: 0.0964
11,GGCGCGGCUGAAAUUUGAATT against Casc1,inactive: 0.372
12,CCUCUCAUGUGUGCCUAUATT against Pitpnm1,inactive: -0.0699
13,CCAUUUAUUUGGACUUGUATT against Lig4,inactive: 0.303
14,GGCUUCAUUCGUAGGCCAUTT against Smcr8,inactive: 1.64
15,GGAGCACAAGAAGGAUAAGTT against Top1,inactive: -0.4
16,GAGCAGCUCUUUAGCCAGGTT against Josd2,inactive: 0.582
17,GGUCAUGAGUAUUUUGACUTT against Klhl24,inactive: -0.277
18,GGUACUCGGUUAUCAUGAATT against Olfr418,inactive: -0.457
19,GGGCGUGGUCAACUUCAAATT against Man1c1,inactive: 0.129
20,GGUGGUAGAUGCGGAUGUGTT against Kif3b,inactive: -0.822
21,CCUGAGUCCACUGAUGAAGTT against Gm9918,inactive: -1.83
22,CCUAAAGGGUUUAUAUGCATT against Slc26a3,inactive: 0.287

# A portion from further up:
row,Sequence,z-score
4,GCAUGCGCGCUACACUCUATT against Adamts5,inactive: -0.622
5,GGACUCCUACAUGAUUGCUTT against Slc52a2,inactive: -0.362
6,GGUCAUCAGAAGAAUCAAGTT against Arr3,active: 2.13
7,GGAGUCCUUCUUUCACUGGTT against Pepd,inactive: -0.223
8,CCUUCACAAGCAAUAAGUCTT against Acot7,inactive: -0.478
